Values from PubChem BioAssay AID1259308 (NCATS, 2017).

Screen: 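Knock-downs that increase output of a recombinant reporter protein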 (primary screen)
Cells: human HEK293 embryonic kidney cells stably expressing firefly luciferase (HEK-CMV-Luc2-Hygro)
Reagents: single siRNA against human genes, 0.8 pmol siRNA per well
Timing: 72 h
Measurement: 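Reporter luminescence and viable-cell signal on separate replicate plates, given as percent of non-targeting control and median/MAD z-scores, plus per-cell luciferase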
Scale: total luciferase, z-score and total luciferase, % of control: higher = more reporter protein produced; luciferase per cell, z-score: higher = more reporter output per viable cell; viable cells, % of control: higher = more viable cells
Active means: 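Active when the median/MAD z-score for overall luciferase is greater than 3; a gene was taken forward for validation with new siRNAs if at least two of its three siRNAs passed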
Meaning of the calls: active = raised luciferase; inactive = no rise
Here is one part, drawn at random, of about 59,000 reagents tested. About 1,510 of all reagents (2.6%) were called active. 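Calls use total luciferase alone and ignore viability, so some active siRNAs may act by altering cell number.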 Reagent sequences are not shown.

The first 3 records as a preview:
| total luciferase, z-score | total luciferase, % of control | luciferase per cell, z-score | viable cells, % of control | activity call | gene symbol | PubChem SID |
| --- | --- | --- | --- | --- | --- | --- |
| 1.2 | 106 | 1.43 | 81 | inactive | MAST2 (microtubule associated serine/threonine kinase 2) | SID160755406 |
| 0.918 | 100 | 0.339 | 102 | inactive | MAST2 (microtubule associated serine/threonine kinase 2) | SID160756449 |
| -0.126 | 79.4 | -0.284 | 95.6 | inactive | MAST2 (microtubule associated serine/threonine kinase 2) | SID160757478 |

The listing, from the first entry:
| total luciferase, z-score | total luciferase, % of control | luciferase per cell, z-score | viable cells, % of control | activity call | gene symbol | PubChem SID |
| --- | --- | --- | --- | --- | --- | --- |
| 1.2 | 106 | 1.43 | 81 | inactive | MAST2 (microtubule associated serine/threonine kinase 2) | SID160755406 |
| 0.918 | 100 | 0.339 | 102 | inactive | MAST2 (microtubule associated serine/threonine kinase 2) | SID160756449 |
| -0.126 | 79.4 | -0.284 | 95.6 | inactive | MAST2 (microtubule associated serine/threonine kinase 2) | SID160757478 |
| 0.613 | 94.1 | 0.221 | 99.2 | inactive | COL3A1 (collagen type III alpha 1 chain) | SID160745766 |
| -1.17 | 58.6 | -1.19 | 89.7 | inactive | COL3A1 (collagen type III alpha 1 chain) | SID160745776 |
| 1.53 | 112 | 1.28 | 89.6 | inactive | COL3A1 (collagen type III alpha 1 chain) | SID160745787 |
| 1.04 | 103 | 0.465 | 101 | inactive | TBC1D19 (TBC1 domain family member 19) | SID160743470 |
| -1.62 | 49.6 | -1.59 | 84.2 | inactive | TBC1D19 (TBC1 domain family member 19) | SID160743472 |
| -1.59 | 50.3 | -1.23 | 77.7 | inactive | TBC1D19 (TBC1 domain family member 19) | SID160743473 |
| -0.32 | 75.5 | -0.423 | 94.3 | inactive | STK35 (serine/threonine kinase 35) | SID160757954 |
| 2.61 | 134 | 1.24 | 108 | inactive | STK35 (serine/threonine kinase 35) | SID160757956 |
| 0.31 | 88 | 0.166 | 94.2 | inactive | STK35 (serine/threonine kinase 35) | SID160757957 |
| -0.423 | 73.5 | -0.669 | 97.9 | inactive | SEPTIN11 (septin 11) | SID160744264 |
| -0.293 | 76.1 | -0.834 | 106 | inactive | SEPTIN11 (septin 11) | SID160744266 |
| -0.728 | 67.4 | -0.497 | 85.8 | inactive | SEPTIN11 (septin 11) | SID160744267 |
| 0.916 | 100 | 0.574 | 96.2 | inactive | SLC35E4 | SID160764271 |
| 2.55 | 133 | 1.49 | 100 | inactive | SLC35E4 | SID160764273 |
| -1.02 | 61.6 | -1.06 | 90.9 | inactive | SLC35E4 | SID160764274 |
| -1.1 | 60 | -1.21 | 92.2 | inactive | GSN (gelsolin) | SID160774630 |
| 0.149 | 84.9 | -0.436 | 106 | inactive | GSN (gelsolin) | SID160774631 |
| 0.93 | 100 | 0.909 | 88.3 | inactive | GSN (gelsolin) | SID160774632 |
| 0.0347 | 82.6 | -0.155 | 96.1 | inactive | ADGRF5 (adhesion G protein-coupled receptor F5) | SID160761672 |
| -0.0628 | 80.6 | -0.212 | 95.3 | inactive | ADGRF5 (adhesion G protein-coupled receptor F5) | SID160761673 |
| 0.532 | 92.5 | -0.366 | 114 | inactive | ADGRF5 (adhesion G protein-coupled receptor F5) | SID160761674 |
